Measured values published in the supplement of paper PMC11006884.
This is a selection; strong and weak results do not stand in their true shares.

Amino acid sequences for entries named in this document (tags omitted). A change or cut given only in a name is not applied to a line headed by its entry.
UniProt Q8WVV9: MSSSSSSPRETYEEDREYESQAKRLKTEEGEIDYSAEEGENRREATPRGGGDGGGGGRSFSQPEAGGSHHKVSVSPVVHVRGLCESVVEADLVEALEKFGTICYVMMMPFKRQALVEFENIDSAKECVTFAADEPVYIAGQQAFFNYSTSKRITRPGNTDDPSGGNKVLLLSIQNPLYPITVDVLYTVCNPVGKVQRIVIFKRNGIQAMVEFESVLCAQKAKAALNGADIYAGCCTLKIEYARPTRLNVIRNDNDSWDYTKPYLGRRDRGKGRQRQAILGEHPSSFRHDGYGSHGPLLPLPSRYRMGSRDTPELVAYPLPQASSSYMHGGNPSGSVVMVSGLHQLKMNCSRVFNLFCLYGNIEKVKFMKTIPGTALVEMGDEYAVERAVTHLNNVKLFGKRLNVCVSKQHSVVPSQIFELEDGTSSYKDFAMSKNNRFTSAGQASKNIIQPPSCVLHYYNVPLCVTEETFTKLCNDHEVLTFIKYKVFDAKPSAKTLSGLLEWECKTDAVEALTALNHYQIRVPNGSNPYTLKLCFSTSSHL
UniProt Q8WUB8: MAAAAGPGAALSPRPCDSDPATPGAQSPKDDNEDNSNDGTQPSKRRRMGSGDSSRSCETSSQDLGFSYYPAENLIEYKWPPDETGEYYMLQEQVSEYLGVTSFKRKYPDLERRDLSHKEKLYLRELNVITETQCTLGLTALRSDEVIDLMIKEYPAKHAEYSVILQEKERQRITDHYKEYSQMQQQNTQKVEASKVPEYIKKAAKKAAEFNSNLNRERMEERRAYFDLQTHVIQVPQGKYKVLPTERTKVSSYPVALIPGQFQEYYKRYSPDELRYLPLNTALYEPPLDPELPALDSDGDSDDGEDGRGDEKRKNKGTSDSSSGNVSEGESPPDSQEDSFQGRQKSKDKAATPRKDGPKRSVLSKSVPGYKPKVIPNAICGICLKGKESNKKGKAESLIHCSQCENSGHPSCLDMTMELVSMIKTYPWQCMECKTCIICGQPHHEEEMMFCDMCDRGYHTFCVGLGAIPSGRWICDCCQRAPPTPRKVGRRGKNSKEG
UniProt Q8N6S5: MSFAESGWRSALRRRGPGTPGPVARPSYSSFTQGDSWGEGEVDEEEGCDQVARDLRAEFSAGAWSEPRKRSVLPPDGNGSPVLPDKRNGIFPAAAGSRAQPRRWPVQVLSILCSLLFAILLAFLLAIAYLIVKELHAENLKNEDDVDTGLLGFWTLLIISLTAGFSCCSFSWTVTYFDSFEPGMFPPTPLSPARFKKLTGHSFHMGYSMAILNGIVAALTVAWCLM
UniProt Q8WUM4: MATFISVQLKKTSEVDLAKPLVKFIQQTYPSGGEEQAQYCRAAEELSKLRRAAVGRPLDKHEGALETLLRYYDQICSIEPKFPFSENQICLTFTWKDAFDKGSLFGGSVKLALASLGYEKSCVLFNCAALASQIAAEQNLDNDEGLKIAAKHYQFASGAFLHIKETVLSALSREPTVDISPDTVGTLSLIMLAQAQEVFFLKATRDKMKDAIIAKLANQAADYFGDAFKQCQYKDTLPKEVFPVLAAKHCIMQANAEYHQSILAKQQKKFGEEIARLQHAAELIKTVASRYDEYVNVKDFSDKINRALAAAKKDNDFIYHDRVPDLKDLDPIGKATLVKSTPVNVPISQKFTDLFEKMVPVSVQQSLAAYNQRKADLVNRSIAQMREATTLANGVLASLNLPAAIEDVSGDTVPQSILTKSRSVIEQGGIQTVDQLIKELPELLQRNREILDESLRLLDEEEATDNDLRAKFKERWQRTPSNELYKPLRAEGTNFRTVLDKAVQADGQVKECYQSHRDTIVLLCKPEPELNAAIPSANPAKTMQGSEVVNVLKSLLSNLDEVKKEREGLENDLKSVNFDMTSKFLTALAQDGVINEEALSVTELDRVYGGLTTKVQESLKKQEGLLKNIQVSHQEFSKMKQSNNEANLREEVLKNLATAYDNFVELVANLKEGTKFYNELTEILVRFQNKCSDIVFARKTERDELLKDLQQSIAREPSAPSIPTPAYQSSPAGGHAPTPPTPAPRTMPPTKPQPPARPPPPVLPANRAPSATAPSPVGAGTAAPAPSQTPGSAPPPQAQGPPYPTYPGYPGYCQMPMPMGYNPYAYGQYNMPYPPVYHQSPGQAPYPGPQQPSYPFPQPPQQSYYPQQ
UniProt Q8IZH2: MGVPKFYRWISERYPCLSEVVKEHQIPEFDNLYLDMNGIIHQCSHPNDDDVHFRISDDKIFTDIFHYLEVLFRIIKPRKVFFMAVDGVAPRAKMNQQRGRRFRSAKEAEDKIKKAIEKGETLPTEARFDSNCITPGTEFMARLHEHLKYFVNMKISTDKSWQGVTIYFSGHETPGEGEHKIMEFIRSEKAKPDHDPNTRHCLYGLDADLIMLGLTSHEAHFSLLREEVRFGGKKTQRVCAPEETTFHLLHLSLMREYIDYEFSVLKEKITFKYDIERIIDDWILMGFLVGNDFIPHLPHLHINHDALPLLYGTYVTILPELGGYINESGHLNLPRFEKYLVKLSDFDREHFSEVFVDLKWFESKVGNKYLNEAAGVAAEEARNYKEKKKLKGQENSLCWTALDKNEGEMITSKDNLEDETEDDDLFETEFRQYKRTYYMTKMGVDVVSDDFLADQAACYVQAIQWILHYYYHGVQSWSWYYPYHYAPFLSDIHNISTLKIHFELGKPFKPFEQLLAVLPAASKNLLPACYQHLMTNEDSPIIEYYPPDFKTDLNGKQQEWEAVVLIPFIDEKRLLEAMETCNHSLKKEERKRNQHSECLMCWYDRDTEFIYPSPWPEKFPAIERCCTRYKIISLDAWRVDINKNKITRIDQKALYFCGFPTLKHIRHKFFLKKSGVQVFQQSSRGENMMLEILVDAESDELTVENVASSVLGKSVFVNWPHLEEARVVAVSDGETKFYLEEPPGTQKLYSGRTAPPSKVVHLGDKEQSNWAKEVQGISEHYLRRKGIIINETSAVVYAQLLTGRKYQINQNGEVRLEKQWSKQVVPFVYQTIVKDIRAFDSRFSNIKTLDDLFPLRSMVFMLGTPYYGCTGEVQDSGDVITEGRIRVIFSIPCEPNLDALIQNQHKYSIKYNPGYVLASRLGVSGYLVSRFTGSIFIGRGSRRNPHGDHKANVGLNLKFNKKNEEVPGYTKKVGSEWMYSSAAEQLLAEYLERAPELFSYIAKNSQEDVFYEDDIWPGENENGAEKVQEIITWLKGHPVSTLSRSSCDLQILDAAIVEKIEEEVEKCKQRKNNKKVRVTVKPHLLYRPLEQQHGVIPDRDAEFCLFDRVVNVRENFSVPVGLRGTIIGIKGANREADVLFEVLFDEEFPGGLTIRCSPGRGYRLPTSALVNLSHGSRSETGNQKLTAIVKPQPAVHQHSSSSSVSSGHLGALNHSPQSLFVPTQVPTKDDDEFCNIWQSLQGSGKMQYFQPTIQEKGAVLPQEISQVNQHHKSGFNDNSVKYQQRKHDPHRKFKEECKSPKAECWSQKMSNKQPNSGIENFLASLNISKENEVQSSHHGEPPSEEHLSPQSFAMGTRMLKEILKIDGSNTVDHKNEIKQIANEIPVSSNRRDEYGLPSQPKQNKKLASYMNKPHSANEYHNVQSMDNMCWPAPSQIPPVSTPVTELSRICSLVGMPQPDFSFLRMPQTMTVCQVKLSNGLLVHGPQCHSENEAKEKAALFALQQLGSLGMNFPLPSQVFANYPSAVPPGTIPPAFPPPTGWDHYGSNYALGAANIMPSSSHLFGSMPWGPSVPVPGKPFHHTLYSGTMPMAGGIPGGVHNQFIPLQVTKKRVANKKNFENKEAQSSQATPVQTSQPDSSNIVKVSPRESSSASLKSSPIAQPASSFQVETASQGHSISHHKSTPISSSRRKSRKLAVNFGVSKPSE
UniProt Q8N6H7: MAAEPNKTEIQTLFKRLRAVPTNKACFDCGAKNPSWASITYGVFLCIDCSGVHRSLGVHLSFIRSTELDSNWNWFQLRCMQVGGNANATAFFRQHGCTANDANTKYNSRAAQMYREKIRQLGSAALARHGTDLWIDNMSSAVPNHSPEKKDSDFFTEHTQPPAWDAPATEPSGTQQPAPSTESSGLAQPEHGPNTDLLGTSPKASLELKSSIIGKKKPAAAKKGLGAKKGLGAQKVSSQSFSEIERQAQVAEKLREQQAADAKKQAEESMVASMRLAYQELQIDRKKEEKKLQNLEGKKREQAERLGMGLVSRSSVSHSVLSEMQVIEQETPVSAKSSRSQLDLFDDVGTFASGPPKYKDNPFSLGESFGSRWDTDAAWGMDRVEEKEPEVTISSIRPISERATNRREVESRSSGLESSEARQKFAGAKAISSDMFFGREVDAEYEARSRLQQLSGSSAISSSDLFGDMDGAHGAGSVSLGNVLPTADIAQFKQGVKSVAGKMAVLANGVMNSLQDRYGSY
UniProt Q8TEJ3: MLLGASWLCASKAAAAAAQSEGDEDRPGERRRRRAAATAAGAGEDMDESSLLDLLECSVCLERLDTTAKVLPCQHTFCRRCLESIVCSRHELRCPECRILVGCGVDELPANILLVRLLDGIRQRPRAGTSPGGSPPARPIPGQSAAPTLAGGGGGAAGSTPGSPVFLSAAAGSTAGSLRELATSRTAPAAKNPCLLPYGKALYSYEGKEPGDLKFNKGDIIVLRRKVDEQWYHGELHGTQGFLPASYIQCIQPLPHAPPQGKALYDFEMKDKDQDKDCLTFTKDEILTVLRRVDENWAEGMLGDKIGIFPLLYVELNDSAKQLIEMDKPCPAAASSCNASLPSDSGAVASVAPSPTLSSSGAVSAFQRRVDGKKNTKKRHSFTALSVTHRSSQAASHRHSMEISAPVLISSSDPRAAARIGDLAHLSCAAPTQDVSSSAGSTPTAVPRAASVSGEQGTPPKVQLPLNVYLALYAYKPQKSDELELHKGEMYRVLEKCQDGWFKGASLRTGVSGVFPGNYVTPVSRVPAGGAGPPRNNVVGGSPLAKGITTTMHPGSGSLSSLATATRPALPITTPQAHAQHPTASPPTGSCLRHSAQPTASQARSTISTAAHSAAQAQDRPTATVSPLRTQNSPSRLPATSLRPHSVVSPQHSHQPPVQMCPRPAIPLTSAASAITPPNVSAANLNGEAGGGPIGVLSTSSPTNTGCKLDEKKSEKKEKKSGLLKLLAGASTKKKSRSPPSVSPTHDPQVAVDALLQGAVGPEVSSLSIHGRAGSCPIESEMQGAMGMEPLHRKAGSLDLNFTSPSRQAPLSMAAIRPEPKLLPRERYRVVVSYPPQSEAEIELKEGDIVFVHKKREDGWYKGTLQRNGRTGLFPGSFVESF
UniProt Q8NB90: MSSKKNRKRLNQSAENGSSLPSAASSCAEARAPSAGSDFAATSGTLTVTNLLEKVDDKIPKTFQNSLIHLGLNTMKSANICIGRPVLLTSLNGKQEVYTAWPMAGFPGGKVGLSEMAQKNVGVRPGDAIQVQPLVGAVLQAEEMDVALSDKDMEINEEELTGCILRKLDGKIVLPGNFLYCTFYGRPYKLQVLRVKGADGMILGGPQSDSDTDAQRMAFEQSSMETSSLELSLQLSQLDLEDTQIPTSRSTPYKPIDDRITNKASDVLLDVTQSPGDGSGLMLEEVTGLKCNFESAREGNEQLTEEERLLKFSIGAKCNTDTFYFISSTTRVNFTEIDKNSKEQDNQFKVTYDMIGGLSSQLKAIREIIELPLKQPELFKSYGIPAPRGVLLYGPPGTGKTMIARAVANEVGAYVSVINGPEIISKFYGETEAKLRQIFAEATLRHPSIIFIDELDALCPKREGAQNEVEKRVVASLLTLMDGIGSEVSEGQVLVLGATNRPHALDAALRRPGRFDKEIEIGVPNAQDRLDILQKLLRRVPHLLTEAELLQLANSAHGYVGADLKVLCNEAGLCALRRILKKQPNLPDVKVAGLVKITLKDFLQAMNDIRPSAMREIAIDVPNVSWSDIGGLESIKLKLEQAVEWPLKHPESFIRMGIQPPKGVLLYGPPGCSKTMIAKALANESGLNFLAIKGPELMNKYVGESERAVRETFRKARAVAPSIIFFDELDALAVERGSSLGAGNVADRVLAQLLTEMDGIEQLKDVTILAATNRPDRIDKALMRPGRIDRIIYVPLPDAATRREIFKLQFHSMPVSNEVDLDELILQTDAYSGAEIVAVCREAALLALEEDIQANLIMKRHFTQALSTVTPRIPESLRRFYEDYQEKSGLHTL

compound: COC(=O)C#Cc1ccccc1 [methyl 3-phenylpropiolate]; experiment: log2 ratio of iodoacetamide-alkyne labeling of the cysteine site, DMSO over compound (competition); higher = stronger covalent engagement of the cysteine by the compound, active = 1 or more; settings: 500 µM; treatment time 1 h; system: HEK293T cell lysate
How it was run: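 The log2 competition ratio per cysteine is defined as mean reporter intensity in control channels over mean reporter intensity in compound channels. Lysate from HEK293T cells (2 mg/mL) received electrophile (500 µM) or vehicle for 1 h at ambient temperature, followed by iodoacetamide alkyne for 1 h. Samples were clicked to sCIP-TMT reagents, pooled, trypsin-digested overnight at 37 °C, streptavidin-enriched, acid-eluted and run on Orbitrap Eclipse LC-MS/MS with FAIMS, with quantification in FragPipe. Three replicates with duplicate channels were used, and any cysteine quantified in only one replicate was excluded.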

Row | Target | log2 ratio of iodoacetamide-alkyne labeling
1 | UniProt Q8WZA9_C158 | inactive: 0.611
2 | UniProt Q8WVV9_C103 | inactive: 0.263
3 | PHF10 C380 (UniProt Q8WUB8) | inactive: 0.137
4 | ARL6IP6 C48 (UniProt Q8N6S5) | inactive: 0.392
5 | GPT2 C142 (UniProt Q8TD30) | inactive: 0.269
6 | PDCD6IP C40 (UniProt Q8WUM4) | inactive: 0.812
7 | XRN1 C1450 (UniProt Q8IZH2) | inactive: -0.208
8 | TOR1AIP2 C468 (UniProt Q8NFQ8) | inactive: 0.403
9 | SYNE1 C6090 (UniProt Q8NF91) | inactive: -0.08
10 | ARFGAP2 C79 (UniProt Q8N6H7) | inactive: 0.0746
11 | UniProt Q8TEJ3_C103 | inactive: 0.0491
12 | UniProt Q8NC60_C364 | inactive: 0.2
13 | UniProt Q8WVV9_C84 | inactive: 0.263
14 | SPATA5 C318 (UniProt Q8NB90) | inactive: 0.288

An excerpt of these results, as tab-separated lines.
Row	Target	log2 ratio of iodoacetamide-alkyne labeling
3	PHF10 C380 (UniProt Q8WUB8)	inactive: 0.137
4	ARL6IP6 C48 (UniProt Q8N6S5)	inactive: 0.392
